PubChem BioAssay AID1439 (NMMLSC, 2008)
About 770 (0.35%) of roughly 220,000 compounds were called active. This list was built around the results that the source calls inconclusive (neither active nor inactive); the mix of calls is not that of the screen. Cut-off read from the data, not from the text of the source: active = binding response below about 49% or above about 150%; inconclusive = no clear call, values can overlap the other calls; inactive = in between.

By UniProt entry, the sequences of proteins in these tests, tags left out.
UniProt P09471, whole entry, looked up: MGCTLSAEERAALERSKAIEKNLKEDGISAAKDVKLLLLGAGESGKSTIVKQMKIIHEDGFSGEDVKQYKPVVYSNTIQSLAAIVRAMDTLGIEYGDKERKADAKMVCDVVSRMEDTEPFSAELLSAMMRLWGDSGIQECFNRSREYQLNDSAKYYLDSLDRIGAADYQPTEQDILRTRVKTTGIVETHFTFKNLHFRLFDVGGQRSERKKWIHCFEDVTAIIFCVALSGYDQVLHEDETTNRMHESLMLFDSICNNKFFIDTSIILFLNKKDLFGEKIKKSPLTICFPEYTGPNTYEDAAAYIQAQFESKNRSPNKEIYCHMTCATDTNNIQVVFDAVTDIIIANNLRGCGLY

target: Guanine nucleotide-binding protein G(o) subunit alpha (Homo sapiens) (UniProt P09471); assay: RGS7-Galphao binding modulators, primary screen, biochemical, multiplexed bead flow cytometry (AID 1439); settings: at 10 µM, actives lie on both sides;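 note: fluorescent Galphao held in activated GDP-AlF4 state binding bead-coupled RGS7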

SMILES	binding response (% of control)
O=C(NCCCN1CCOCC1)C(=O)NCc1ccc(Cl)cc1	inactive: 103%
CC(O)[C@H]1CNC(=O)C(=O)N1CCCCC1CCCCC1 (stereo partly drawn)	inconclusive: 102%
CCCCCCOC(=O)Cc1c(C)nc(N)[nH]c1=O	inconclusive: 89%
Cc1cccc(N(Cc2cc(=O)[nH]c3ccccc23)C(=O)C(C)C)c1	inconclusive: 80.5%
O=C(C1CCN(S(=O)(=O)N2CCC3(CC2)OCCO3)CC1)N1CCN(Cc2ccccc2)CC1	inactive: 147%
CC(=O)NCCc1nc2ccccc2n1CCOc1ccccc1	inconclusive: 86.9%
COc1ccc(C2C(C(=O)NC(C)C)c3ccccc3C(=O)N2C)cc1OC (stereo not drawn)	inactive: 118%
Nc1ccc(C(=O)OCc2nc3ccccc3s2)cc1	inconclusive: 99.4%
CCOc1ncnc2c1[nH]c1ccccc12	inconclusive: 102%
NNC(=O)c1ccc(Cn2cc(Br)c(N)n2)cc1	inconclusive: 144%
Cc1ccc(Cl)cc1NC(C#N)c1ccccc1 (stereo not drawn)	inconclusive: 100%
O=c1[nH]ncc(NCc2ccc(Cl)cc2)c1Cl	inactive: 97.4%
CN1C=CC(=CC=C2C=CC(=O)C=C2)C=C1	inconclusive: 96.8%
COC(=O)c1ccccc1N=Nc1c(N)[nH][nH]c1=O	inconclusive: 124%
CCCCNC(=O)C1(NC(=O)Nc2ccc(C)cc2)CCCCC1	inconclusive: 93.7%
Nc1nc(CSc2ncn[nH]2)nc(Nc2ccc(F)cc2)n1	inconclusive: 84.5%
CCOC(=O)C1=C(c2ccccc2)N=C2SCC(=O)N2C1c1ccc(OCC)c(OCC)c1 (stereo not drawn)	inactive: 98.9%
COc1ccc(C2/C=C\CN(C(=O)C3CCCCC3)CC(=O)N2Cc2ccc(F)cc2)cc1 (stereo not drawn)	inconclusive: 103%
CC(C#Cc1c([C@@H](C)Oc2ccccc2)nnn1Cc1ccccc1)Oc1ccccc1 (stereo partly drawn)	inconclusive: 96.5%
CCc1cccc(CC)c1NC(=S)Nc1ccc2cn[nH]c2c1	inconclusive: 95.9%
CCCCNc1nc(=S)n(-c2ccccc2)c(C)c1C(C)=O	inconclusive: 82.4%
CCCNC(=O)COC(=O)c1ccccc1C(=O)N(C)C1CCCCC1	inactive: 98.5%
NNC(=O)c1ccc(CSc2nc3ccccc3[nH]2)cc1	inconclusive: 109%
CCOC(=O)Cn1cc(Cl)c(=O)c(Cl)c1	inconclusive: 101%

Already shown: an excerpt of the list.
SMILES	binding response (% of control)
Cc1cccc(N(Cc2cc(=O)[nH]c3ccccc23)C(=O)C(C)C)c1	inconclusive: 80.5%
O=C(C1CCN(S(=O)(=O)N2CCC3(CC2)OCCO3)CC1)N1CCN(Cc2ccccc2)CC1	inactive: 147%
CC(=O)NCCc1nc2ccccc2n1CCOc1ccccc1	inconclusive: 86.9%
COc1ccc(C2C(C(=O)NC(C)C)c3ccccc3C(=O)N2C)cc1OC (stereo not drawn)	inactive: 118%
Nc1ccc(C(=O)OCc2nc3ccccc3s2)cc1	inconclusive: 99.4%
CCOc1ncnc2c1[nH]c1ccccc12	inconclusive: 102%
NNC(=O)c1ccc(Cn2cc(Br)c(N)n2)cc1	inconclusive: 144%
Cc1ccc(Cl)cc1NC(C#N)c1ccccc1 (stereo not drawn)	inconclusive: 100%
O=c1[nH]ncc(NCc2ccc(Cl)cc2)c1Cl	inactive: 97.4%
CN1C=CC(=CC=C2C=CC(=O)C=C2)C=C1	inconclusive: 96.8%
COC(=O)c1ccccc1N=Nc1c(N)[nH][nH]c1=O	inconclusive: 124%
CCCCNC(=O)C1(NC(=O)Nc2ccc(C)cc2)CCCCC1	inconclusive: 93.7%
Nc1nc(CSc2ncn[nH]2)nc(Nc2ccc(F)cc2)n1	inconclusive: 84.5%
CCOC(=O)C1=C(c2ccccc2)N=C2SCC(=O)N2C1c1ccc(OCC)c(OCC)c1 (stereo not drawn)	inactive: 98.9%
COc1ccc(C2/C=C\CN(C(=O)C3CCCCC3)CC(=O)N2Cc2ccc(F)cc2)cc1 (stereo not drawn)	inconclusive: 103%
CC(C#Cc1c([C@@H](C)Oc2ccccc2)nnn1Cc1ccccc1)Oc1ccccc1 (stereo partly drawn)	inconclusive: 96.5%
CCc1cccc(CC)c1NC(=S)Nc1ccc2cn[nH]c2c1	inconclusive: 95.9%
CCCCNc1nc(=S)n(-c2ccccc2)c(C)c1C(C)=O	inconclusive: 82.4%
CCCNC(=O)COC(=O)c1ccccc1C(=O)N(C)C1CCCCC1	inactive: 98.5%
NNC(=O)c1ccc(CSc2nc3ccccc3[nH]2)cc1	inconclusive: 109%

More compounds.

SMILES	binding response (% of control)
CCn1c(SCC(=O)Nc2ccc(OC)cc2)nc2nc3c(cc2c1=O)CCCC3	inconclusive: 103%
CCC(=O)Nc1ccc2oc(-c3cccnc3)nc2c1	inconclusive: 90%
O=C1C(Cl)=C(Nc2ccc3cn[nH]c3c2)C(=O)c2ccccc21	inconclusive: 34.9%
O=S(=O)(NCc1csc(-c2cccs2)n1)c1cccc(C(F)(F)F)c1	inconclusive: 98%
COc1ccccc1N(CC(=O)NCC1CCCO1)C(=O)CNS(=O)(=O)c1ccc(Cl)cc1 (stereo not drawn)	inconclusive: 104%
CCC(C)[C@H](NC(=O)N1CCC(C)CC1)C(=O)O (stereo partly drawn)	inconclusive: 112%
CCOc1ccc(-c2c(=O)n(OCc3nc4ccccc4[nH]3)c3ccccc3[n+]2[O-])cc1	inconclusive: 104%
NNC(=O)C1CC1c1ccc(Cl)cc1 (stereo not drawn)	inactive: 96.3%
CSc1nc(N(C)C)nc(N2CC(=O)N(CCNS(=O)(=O)c3ccc(C)cc3)C2=N)n1	inactive: 104%
O=c1[nH]c2cccnc2n1-c1cccc([N+](=O)[O-])c1	inconclusive: 89.9%
Cc1cccc(CN2C[C@]34C=C[C@@H](C[C@@H]3S2(=O)=O)O4)c1	inconclusive: 28.4%
CCC(CC)C(=O)c1c[nH]c(C(=O)NCc2ccccn2)c1	inactive: 101%
CN1c2ccccc2C(=O)NC1c1ccc(Cl)cc1 (stereo not drawn)	inconclusive: 54.7%
COc1ccc(-c2ccoc2)cc1[C@H]1[C@H]2C=CC[C@@H](C)[C@@H]2C(=O)N1Cc1ccccc1	inconclusive: 85.3%
CCOC(=O)N1CCc2c(sc3ncn(Cc4ccc(F)cc4)c(=O)c23)C1	inconclusive: -151%
CC(=O)NCCNc1ccc([N+](=O)[O-])cc1C#N	inconclusive: 93.1%
Cc1ccc(Nc2ncnc(N)n2)cc1C	inactive: 97%
COc1cc(C(=O)NCC(=O)OCC(=O)Nc2ncc(Cl)cc2Cl)cc(OC)c1OC	inconclusive: 106%
CCSc1nnc(NC(=O)CC(C)C)s1	inconclusive: 88.7%
COc1ccc(-c2cc3ccccc3oc2=O)cc1NC(=O)c1ccc(Br)o1	inactive: 123%
CC(=O)N1CCN(Cc2nc3cc(NC(=O)c4cccc(Br)c4)ccc3n2C)CC1	inconclusive: 108%
O=c1c2c3c(sc2n(CCN2CCCC2)c(=O)n1Cc1ccccc1)CCCCC3	inconclusive: 140%
CCOc1ccc(N2CCc3c(C)nc(SC)nc32)cc1	inactive: 99.2%
CCOC(=O)c1cc(-c2csc(Nc3ccccc3Cl)n2)on1	inconclusive: 88.6%

SMILES	binding response (% of control)
O=C(O)C(Cc1cc2ccccc2[nH]1)N1C(=O)C2CC=C(Cl)CC2C1=O (stereo not drawn)	inactive: 97.5%
Cc1cc(NC(=O)CS(=O)(=O)Cc2ccccc2)no1	inconclusive: 114%
O=C(Oc1cc(=O)oc2c1c(=O)n1c3c(cccc23)CC1)c1ccccc1	inconclusive: -32.6%
COc1cccc(N2C(=O)CC(NNc3nc4ccccc4s3)C2=O)c1 (stereo not drawn)	inconclusive: 65.3%
c1ccc(Cn2cc(CSc3ccccc3)nn2)cc1	inconclusive: 99.3%
CN1C(=O)N(C)C2(c3ccccc3)NNC(N)=NC12c1ccccc1 (stereo not drawn)	inconclusive: 111%
O=C(CCSc1ccccc1)NC(=O)COC(=O)C1CCCCC1	inconclusive: 83.8%
Cc1ccsc1/C=N/NC(=S)NCc1ccccc1	inconclusive: 85.3%
Cn1c(SCCOc2ccccc2F)nc2ccccc2c1=O	inconclusive: 153%
O=C1/C(=C/c2ccc(O)cc2)SC(=S)N1CC1CCCO1 (stereo not drawn)	inconclusive: 559%
CCOC(=O)c1c(C)[nH]c(C(=O)Cn2nnc(-c3ccccc3Cl)n2)c1C	inactive: 100%
COC(=O)c1cc(NC(=O)CN(C)Cc2ccccc2)cc(C(=O)OC)c1	inconclusive: 96.6%
CN1CCC(=NNC(=O)C(=O)Nc2ccc(F)cc2)CC1	inconclusive: 107%
O=C(O)c1cccc(Nc2ncnc3ccc(Br)cc23)c1	inconclusive: 107%
COC(=O)CCN(C(=O)c1ccc(Cl)c([N+](=O)[O-])c1)c1ccccn1	inconclusive: 90.8%
CC(C)CC(=O)NC(=S)Nc1sc2c(c1C(N)=O)CCC2	inconclusive: 105%
O=C(CN1C(=O)C2C3CC(C(Br)C3Br)C2C1=O)Nc1ccc(C(=O)O)cc1 (stereo not drawn)	inconclusive: 80.6%
O=S(=O)(c1cccc(F)c1)N1CCc2sccc2C1c1ccc(OC(F)(F)F)cc1 (stereo not drawn)	inconclusive: 28.2%
O/N=C/c1ccc(-c2ccccc2OC(F)(F)F)o1	inconclusive: 166%
COC(=O)c1cccc(C23CC4(C2)[C@H](CN(Cc2ccc(C(F)(F)F)cc2)[C@@H]4c2ccccc2)C3c2ccccc2)c1 (stereo partly drawn)	inconclusive: 98.3%
O=[N+]([O-])c1cccc(/C=C/c2ccncc2)c1	inconclusive: 99.4%
CCC1CCCCN1CC(=O)c1c(C)[nH]c2ccc(OC)cc12 (stereo not drawn)	inconclusive: 223%
Cn1cnnc1SCC(=O)Nc1ccc(Cl)c(S(=O)(=O)N2CCOCC2)c1	inconclusive: 122%
CCc1nc(NCCO)c(C#N)c2c1CCCC2	inconclusive: 83%

SMILES	binding response (% of control)
COc1ccc(-c2nnc(SCC(=O)Nc3cc(F)ccc3C)o2)cc1	active: 185% [activator]
Cc1nn(C)c2ncc(C(N)=O)c(Oc3cccnc3)c12	inconclusive: 108%
Cc1cc(NC(=O)CCN2C(=O)/C(=C\c3ccccc3)SC2=S)no1	inconclusive: 122%
Cc1ccc(NC(=S)N2CCc3[nH]c4ccccc4c3C2)cc1	inconclusive: 110%
S=C1NCN(Cc2ccco2)CN1c1ccccc1	inconclusive: 54.8%
Cc1ccc(/C=C/C(=O)O)cc1S(=O)(=O)Nc1ccc(C(=O)O)cc1	inconclusive: 71.5%
CC(C)CNC(=O)COC(=O)c1cc(Cl)cc(Cl)c1N	inactive: 94.5%
COc1ccc(Cl)cc1C(=O)NNC(=S)NC1CCCCC1	inconclusive: 138%
COc1ccccc1NC(=O)CCC(=O)N/N=C(/C)c1ccc(C)cc1	inactive: 92.9%
CN(C)c1ccc(C2CC(=O)C=C(Nc3ccccc3N)C2)cc1 (stereo not drawn)	inconclusive: 115%
Cc1ccc(NC(=O)NC(=O)N(C(C)C)S(=O)(=O)c2ccc(C)cc2)cc1	inactive: 102%
CCC(=O)c1ccc(OCc2ccc(C(=O)c3ccccc3)cc2)cc1	inconclusive: 91.3%
CCCN1CNC(=S)N(c2cccc(C)c2)C1	inconclusive: 104%
Cc1ccccc1C(=O)NNC(=O)/C=C\C(=O)O	inconclusive: 169%
Cc1cc(=O)n2c3ccccc3n(CC(O)CN3CCOCC3)c2c1C#N (stereo not drawn)	inconclusive: 95.5%
O=C(O)c1ccccc1N/N=C/C1=C(N2CCOCC2)C(=C\c2ccccc2)/CC1	inconclusive: 96.2%
O=C(CN1CCOCC1)N/N=C/c1ccccc1	inconclusive: 109%
COc1ccc(C2=CC3=C(Br)C(=O)C(C)(OC(=O)C4CCCC4)C(=O)C3=CO2)cc1 (stereo not drawn)	inconclusive: 70.3%
CCOC(=O)C1(Cc2cccc(Cl)c2)CCCN(C(=O)C2CC2)C1 (stereo not drawn)	inactive: 104%
O=C(NNc1cc(Cl)ccc1Cl)c1cccs1	inconclusive: 70%
CCC(=O)Nc1cc(-c2cc3ccccc3oc2=O)ccc1OC	inconclusive: 101%
